Source: PubChem BioAssay AID1347076 (National Center for Advancing Translational Sciences (NCATS), 2019)
In all, about 400,000 compounds went through this assay and about 13,000 (3.2%) were called active. The inconclusive results got no clear call from the source; some entries with a clear call stand among them for comparison. The call rests on the fitted dose curve; in most records, active means well fitted cell-killing curve with a large enough effect; inconclusive means small, poorly fitted or top-dose-only effect, or effect the other way; inactive means flat fitted curve, though single readings scatter. A potency beside an inconclusive call is a rough fit, not a confirmed value.

Test: qHTS assay for MDR1-selective chemotherapeutics: Primary screen using the drug-selected MDR subline cells KB-V1; further: nearly all actives have a fitted effect of over 60% in size
Conditions: KB-V1 MDR cells viability, CellTiter-Glo, 72 h; series mostly up to 46.1 µM
Summary of the method: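 Cells of the MDR subline KB-V1 are plated, dosed with compound at multiple concentrations, and incubated 72 h at 37 degrees C; CellTiter-Glo is then added and luminescence read after 10 min.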
Potency means the concentration at half of the fitted maximal effect.

Structure (SMILES)	Potency
COc1ccc(C(=O)c2[nH]c(N)c(C(=O)NCCc3c[nH]c4ccccc34)c2-c2ccc(Cl)cc2)cc1	inactive
COc1ccc(-c2c(C(=O)c3ccccc3)[nH]c(N)c2C(=O)c2ccc(Br)cc2)cc1OC	inconclusive: 20.6 µM [cytotoxic, partial curve, poor fit]
Cc1ccc(S(=O)(=O)N2CN(Cc3ccco3)c3nc4ccccc4nc32)cc1C	inconclusive: 10.3 µM [cytotoxic, partial curve]
CCCOc1ccc(/C=N/NC(=O)c2nnn(-c3nonc3N)c2-c2cccs2)cc1OC	inconclusive: 16.4 µM [rising, partial curve, poor fit]
O=C(CC(C(=O)O)n1ccnc1)c1ccc(Cl)cc1 (stereo not drawn)	inactive
CCCOc1ccc(N2C(=O)CC(N3CCC(c4nncn4CC)CC3)C2=O)cc1 (stereo not drawn)	inconclusive: 6.51 µM [rising, partial curve, poor fit]
CCOc1ccc(NCc2nnc(SCc3ccccc3Cl)n2-c2ccccc2)cc1	active: 20.6 µM
CC(NC(=O)Cc1ccc(S(=O)(=O)N2CCOCC2)s1)c1ccc(Cl)c(Cl)c1 (stereo not drawn)	inconclusive: 11.6 µM [cytotoxic, partial curve]
CN(C)S(=O)(=O)Oc1ccc(C(=O)Nc2cccc(Cl)c2)cc1	inactive
Cc1csc(SC(C)C(=O)NCc2ccc3c(c2)OCO3)n1 (stereo not drawn)	inactive
Cc1ccc(OCC(=O)Nc2ccc(N3CCN(C(=O)c4ccco4)CC3)cc2)c(C)c1	inconclusive: 2.06 µM [cytotoxic, full curve, poor fit]
O=C(Nc1cc(F)cc(F)c1)c1ccc(NCCCN2CCCCCC2)c([N+](=O)[O-])c1	inconclusive: 5.8 µM [cytotoxic, partial curve, poor fit]
Clc1ccc(CSc2nnc(-c3cccnc3)n2Cc2ccco2)c(Cl)c1	inconclusive: 18.4 µM [cytotoxic, single point]
CCc1nnc(NC(=O)[C@@H]2CCCN2C(=O)c2cccs2)s1	inconclusive: 29.1 µM [rising, single point]
Cc1ccc2nc(-c3cccc(NC(=O)c4ccco4)c3)[nH]c2c1	inconclusive: 29.1 µM [cytotoxic, single point]
CCn1nc(C)c2c(-c3ccccc3)cc(=O)n(C(C)C(=O)NCCc3ccc(Cl)cc3)c21 (stereo not drawn)	inactive
O=S(=O)(c1ccc(-c2cnc(C3CC3)o2)cc1)N1CCN(c2ccc(F)cc2)CC1	inactive
O=C(c1ccc([N+](=O)[O-])s1)N1CCN(c2cccc(Cl)c2)CC1	active: 16.4 µM
Cc1nc(C)c(-c2ccc(SCC(=O)Nc3cccc(Cl)c3C)nn2)s1	inconclusive: 0.013 µM [cytotoxic, full curve, poor fit]
COC(=O)c1c(NC(=O)c2ccccc2N(C)S(=O)(=O)c2ccccc2)sc2c1CCCC2	active: 6.51 µM
O=[N+]([O-])c1ccc2c(c1)nc(CO)n2Cc1ccccc1	inactive
O=C(N/N=C1\CC(c2ccccc2)Oc2ccccc21)c1cccnc1 (stereo not drawn)	inconclusive: 8.2 µM [cytotoxic, partial curve]
COc1ccc(NC(=O)C2(S(=O)(=O)c3ccc(C)cc3)CC2)cc1	inactive

Structure (SMILES)	Potency
COc1ccc2sc3ccccc3c(=O)c2c1	inconclusive: 32.6 µM [cytotoxic, partial curve, poor fit]
Cc1cc2nc(N3C(=O)CNC3=S)sc2cc1C	active: 16.4 µM
CCc1cccc(C)c1NC(=O)Cc1ccsc1	inconclusive: 14.6 µM [rising, single point]
COc1ccc(OC)c(NC(=O)CSc2nnc(CNC(=O)COc3ccc(Cl)cc3)o2)c1	inconclusive: 11.6 µM [rising, single point]
Oc1ccc(Br)cc1-c1ccn[nH]1	inactive
CCOC(=O)/C(C#N)=N/Nc1c(S(=O)(=O)Cc2ccco2)csc1C(=O)OC	inconclusive: 23.1 µM [cytotoxic, single point]
COc1cc(-n2c(=O)c3ccccc3n(Cc3cccc(Cl)c3)c2=O)cc(OC)c1OC	inactive
N#Cc1ccc(Oc2nc(Nc3ccc(F)cc3)nc(N3CCCC3)n2)cc1	inconclusive: 6.51 µM [cytotoxic, full curve, poor fit]
C/C(=N\NC(=S)NCc1ccccc1)c1ccc2ccccc2c1OC(F)F	inconclusive: 29.1 µM [cytotoxic, single point]
CCOC(=O)c1ccc(Nc2cc(C)nc(-c3ccccc3)n2)cc1	inconclusive: 3.66 µM [cytotoxic, full curve, poor fit]
O=[N+]([O-])c1ccc(NNC(=S)Nc2ccc(F)cc2)cc1	active: 20.6 µM
O=C1C(C=NCCCN2CCCC2=O)=C(O)c2ccccc21	inconclusive: 18.4 µM [cytotoxic, single point]
CCOc1ccccc1NS(=O)(=O)c1cccc2nsnc12	inconclusive: 25.9 µM [cytotoxic, single point]
COc1cc(OC)cc(C(=O)N/N=C/c2ccc(OC)c(COc3ccc(F)cc3)c2)c1	active: 10.3 µM
CC(C(=O)NC1CCCC1)N(C(=O)Cn1nnc(-c2ccc(F)cc2)n1)c1ccccc1F (stereo not drawn)	inconclusive: 25.9 µM [cytotoxic, single point]
Cc1ccc(CNC(=O)c2ccc(N3CCC4(CC3)CC(c3ccccc3)=NO4)c(NC(=O)c3c(Cl)cccc3Cl)c2)cc1	inconclusive: 20.6 µM [rising, single point]
Cc1cccc(NC(=S)N2CCOCC2)c1C	inconclusive: 13 µM [rising, partial curve, poor fit]
O=C(Nc1ccc(F)cc1F)C1CCCN1S(=O)(=O)c1ccc(-c2ccc(=O)[nH]n2)s1 (stereo not drawn)	inconclusive: 7.31 µM [cytotoxic, partial curve]
COc1cccc(C2CC(c3ccccc3)=NN2S(=O)(=O)c2ccc(C)cc2)c1OC (stereo not drawn)	inconclusive: 5.17 µM [cytotoxic, partial curve]
CN1CCC(=O)N([C@H](CSc2ccccc2)Cc2ccccc2)CC1	inconclusive: 14.6 µM [cytotoxic, partial curve, poor fit]
CCOC(=O)C1=C(C)n2c(s/c(=C3\C(=O)Nc4ccccc43)c2=O)=NC1c1ccc(OC)cc1 (stereo not drawn)	inconclusive: 23.1 µM [cytotoxic, partial curve, poor fit]
CN(CC(=O)NCC(=O)Nc1ccc(F)c(F)c1F)C1CCS(=O)(=O)C1 (stereo not drawn)	inconclusive: 20.6 µM [rising, single point]
O=C(CSc1ncccn1)NCc1ccccc1	inactive

Gathered by group: the entries above containing a cyano group
Structure (SMILES)	Potency
CCOC(=O)/C(C#N)=N/Nc1c(S(=O)(=O)Cc2ccco2)csc1C(=O)OC	inconclusive: 23.1 µM [cytotoxic, single point]
N#Cc1ccc(Oc2nc(Nc3ccc(F)cc3)nc(N3CCCC3)n2)cc1	inconclusive: 6.51 µM [cytotoxic, full curve, poor fit]

Arranged by length of the SMILES (rising): 3 of the compounds above.
Structure (SMILES)	Potency
Cc1cc2nc(N3C(=O)CNC3=S)sc2cc1C	active: 16.4 µM
O=[N+]([O-])c1ccc(NNC(=S)Nc2ccc(F)cc2)cc1	active: 20.6 µM
COc1ccc(OC)c(NC(=O)CSc2nnc(CNC(=O)COc3ccc(Cl)cc3)o2)c1	inconclusive: 11.6 µM [rising, single point]

The list goes on:

Structure (SMILES)	Potency
N=c1n(Cc2ccccc2)c2ccccc2n1Cc1ccccc1	active: 18.4 µM
CCOC(=O)C1=CC[C@@H](c2cccc(C)c2)N(S(=O)(=O)c2ccc(C)cc2)[C@H]1C(=O)OCC	inconclusive: 29.1 µM [cytotoxic, single point]
CC1CCN(CCNC(=S)Nc2ccc(Cl)cc2)CC1	inconclusive: 16.4 µM [cytotoxic, partial curve, poor fit]
COc1ccc2sc(-c3ccc(N(C)C)cc3)c(C#Cc3cncn3C)c2c1	inconclusive: 20.6 µM [cytotoxic, single point]
O=C(Nc1nnc(-c2ccccc2Cl)o1)c1nc2ccccc2s1	inconclusive: 16.4 µM [cytotoxic, single point]
CN(c1ccc(C(=O)N2CCCCCC2)cc1)S(=O)(=O)c1ccc(Cl)cc1	active: 23.1 µM
CCOC(=O)c1ccc(NC(=O)NC2=NCCS2)cc1	inconclusive: 29.1 µM [cytotoxic, single point]
COc1cccc(-c2nc(CS(=O)(=O)CC(=O)Nc3ccccc3Cl)c(C)o2)c1	active: 6.51 µM
Cc1ccc(N2C(=O)c3cccc4c(N)ccc(c34)C2=O)c2cccnc12	active: 0.58 µM
COc1ccc(C2=NN(C(=O)c3ccco3)C(c3ccco3)C2)cc1OC (stereo not drawn)	inconclusive: 5.17 µM [cytotoxic, full curve]
O=C(Nc1cc(S(=O)(=O)N2CCOCC2)ccc1O)c1ccc(NS(=O)(=O)c2ccc(Cl)s2)cc1	inactive
O=C(NCc1cccnc1)c1ccc([N+](=O)[O-])o1	active: 23.1 µM
COc1ccc(CNC(=O)C(C)NC(=O)c2cc3ccccc3o2)cc1 (stereo not drawn)	inconclusive: 16.4 µM [cytotoxic, partial curve]
COc1ccc(NC(=O)Nn2cnnc2)cc1OC	inconclusive: 18.4 µM [rising, single point]
Cn1c(=O)c2ncn(CC(=O)N/N=C/c3ccco3)c2n(C)c1=O	inactive
Cc1ccc(C(C)n2cc(C(=O)NCc3cccnc3)nn2)cc1 (stereo not drawn)	active: 14.6 µM
Cc1ccc(C)c(N2CCN(C(=O)c3ccc(Cn4c(=O)[nH]c5ccccc5c4=O)cc3)CC2)c1	inconclusive: 18.4 µM [cytotoxic, single point]
CNC(=S)N/N=C/c1cc(C)n(-c2ccc(Cl)c(Cl)c2)c1C	inactive
O=C(CCSCCc1ccccn1)Nc1ccc(Cl)cc1	inconclusive: 29.1 µM [rising, single point]
O=C(Nc1ccc(Br)cc1)c1cc(S(=O)(=O)NC2CCCC2)ccc1F	inconclusive: 16.4 µM [cytotoxic, single point]
CCCNC(=O)Nc1nccs1	inconclusive: 2.31 µM [rising, full curve]
O=C(NCc1ccccc1)C(c1ccco1)N(C(=O)c1ccccn1)c1ccccc1 (stereo not drawn)	inconclusive: 5.8 µM [cytotoxic, partial curve, poor fit]
